This is one part of the list.
B1: il10ra_site1_normal_mot_HHH_b2_02354_af2_000000157_0001_40_56_H_._HHH_b1_03315_af2_0001_0000100009_0000002_0 (protein)
chain: SSSSREEVSQLIEEILRLIKEGDEEEARELLEEAKRIAEELGDENAKFILESLEKALEQLFSSSS
B2: il10ra_site1_normal_mot_HHH_b2_07145_000000158_0001_24_40_H_._HHH_b2_07531_0001_0000200038_0000002_0 (protein)
chain: SSSSEEFFEKIKRIIEEAQELFEEGNEEEAERVLEEAAKEAKELNNFAALWSLEHLLRALSSSSS
B3: il10ra_site1_normal_mot_HHH_b2_06767_000000020_0001_41_56_H_._HHH_b2_06012_0001_0000400029_0000003_0_af2pred_0001 (protein)
chain: SSSSSHHEAAKLLLLVARAADEGDEELLEELEKELRELLKKLDDEKARLAVRFALWLIEALSSSS
B4: il10ra_site1_normal_mot_HHH_b1_05326_000000242_0001_1_20_H_._HHH_b2_05586_af2_0001_0000300014_0000001_0 (protein)
chain: SSSSSNEEALRLSVHAFRALLRGNPEEAQELLEEALEIAEKAGNERLARQIEELLKAVESNSSSS
B5: il10ra_site1_normal_mot_HHH_b2_02337_000000026_0001_38_52_H_._HHH_b2_07301_0001_0000200008_0000001_0 (protein)
chain: SSSSDRLEELLEELERALEEGDQEEFIELAQEVSRLAMELGDQEVLKEVWELVEEFRKLLSSSSS
B6: il10ra_site1_normal_mot_HHH_b1_01707_000000240_0001_1_17_H_._HHH_b1_05707_0001_0000100003_0000001_0_af2pred_0001 (protein)
chain: SSSSDSEEEAAKALLEAVKVAERLGDEELARLVLRLAERIVRLAGDEEVLEELEKLKEELSSSSS
B7: il10ra_site1_normal_mot_HHH_b2_02736_000000092_0001_22_38_H_._HHH_b1_04037_0001_0000200022_0000001_0 (protein)
chain: SSSSSEEHQELYELLREAIELRAEGNPEEAREVLEEAEELAREAGNENFEVQLRFLQREIDSSSS
B8: il10ra_site1_sap_20_mot_HHH_b2_00622_af2_000000153_0001_40_57_H_._HHH_b2_07209_0001_0000700039_0000002_0_0001 (protein)
chain: SSSSSDAAEESIRFMLKAARQLEDPEAARLAIRFAAALARDVNNEELLEEAEKLLEELRSSSSSS
B9: il10ra_site1_sap_23_mot_HHH_b2_04681_000000155_0001_43_57_H_._HHH_b2_02079_0001_0000500024_0000001_0_0001_af2pred_0001 (protein)
chain: SSSSDEEEQIIEEALRLAEERGDRETFLRLEASLKLARLANDPRALRALARLAERVLEELNSSSS
B10: il10ra_site1_normal_mot_HHH_b2_00984_000000042_0001_1_20_H_._046144532e059992a4c97ca66cd47cac_0001_0001_0000100001_0000001_0 (protein)
chain: DERLEEILEELKKSPDPEVREVVELLERLIEELGDPKKALQAAVRILLERGNAELLQILWEIIKK
B11: il10ra_site1_normal_mot_HHH_b1_06789_af2_000000041_0001_1_20_H_._HHH_b1_01475_0001_0000300012_0000001_0 (protein)
chain: SSSSSSDVEEEAEELLEKLEKEGDRAAVFLLEQVLEALRLAGDPKARRILENLIRILEQSSSSSS
B12: il10ra_site1_normal_mot_HHH_b1_05185_000000011_0001_22_39_H_._HHH_b1_00163_0001_0000200007_0000001_0_1_af2pred_0001 (protein)
chain: SSSSSFAERVLRLVRWLFKNNDEEAIELALKAVRDLLKKENDPRIEEILEEIEELLEELRNSSSS
B13: il10ra_site1_normal_mot_8756ee2cf497b5429c717dfc0c0bcfd6_0001_000000186_0001_1_13_H_._HHH_b1_01529_af2_0001_0000100005_0000001_0_af2pred_0001 (protein)
chain: SSSSNELLRRVQELLKEAAELDHEGNPEEAREVLEEARELAEEANNLVARAQVEFLERIVNSSSS
B14: il10ra_site1_sap_26_mot_HHH_b1_06975_af2_000000094_0001_42_56_H_._HHH_b2_02745_0001_0000200022_0000002_0_0001 (protein)
chain: SSSSSVNQRVQELLRRAFQLIREGNPEEAHELLEEIEELVEEHKNWILRYSLEALEIALRGSSSS
B15: il10ra_site1_sap_13_mot_HHH_b2_07442_000000239_0001_40_54_H_._1817edcbb30e3b4d8c1983a6c7bdefe8_0001_0001_0000400007_0000001_0_0001 (protein)
chain: SSSDDSQRVYELLREAVEALHEGDREEAEKILEEAEELVKENNNVALQMQIEFLERAIERLSSSS
B16: il10ra_site1_normal_mot_HHH_b2_03565_000000130_0001_23_39_H_._HHH_b1_02077_0001_0000100002_0000001_0_af2pred_0001 (protein)
chain: SSSSDDEEFIRLSLRFAEWLLEQGDPEAAELVLRVAERLARELGDEELLEEVERLLEELESSSSS
B17: il10ra_site1_sap_23_mot_0aa80e4383ff73b96d266796d974ca63_0001_000000257_0001_1_11_H_._HHH_b2_04732_af2_0001_0000300010_0000001_0_0001_1 (protein)
chain: SSSSDEEEKELEKLLEEAEELGNEAAFAIARLALHLLRLGRIDEEYFEIAERFIRSALNKSSSSS
B18: il10ra_site1_sap_8_mot_HHH_b2_05548_000000224_0001_41_54_H_._HHH_b1_06396_0001_0000400051_0000002_0_0001 (protein)
chain: SSSSDRRERIWELLKRALELRAEGNPEEAREVVEEAEELAEEANDMLLEYQIKFLQHAIEGSSSS
B19: il10ra_site1_normal_mot_HHH_b2_07144_000000289_0001_1_18_H_._HHH_b2_05497_0001_0000100003_0000001_0 (protein)
chain: SSSSSEESQRLYKLSRKAAELLREGDPEEAREVLEEALELAEELNNFNFLFSLRHLLRDASSSSS
B20: il10ra_site1_sap_30_mot_HHH_b2_02053_af2_000000006_0001_3_19_H_._HHH_b2_06177_0001_0000100006_0000002_0_0001_af2pred_dldesign_0_af2pred (protein)
chain: SPEIEAIRALLKENLSLACAALAKLLAESGNQEDIALARELARLLFEDPERAKELAEKLLAELAK
B21: il10ra_site1_sap_17_mot_HHH_b2_02053_af2_000000006_0001_3_19_H_._HHH_b2_00418_af2_0001_0000600027_0000001_0_0001 (protein)
chain: SSSSDELTQEVFRLLREAVELDSDGNHEEAEEVLEEAERLAKEANNVLLEIQVEFLQRLLGSSSS
B22: il10ra_site1_sap_15_mot_ems_3hM_3349_000000275_0001_25_42_H_._7f845fc392f084dc2c3019ce91433427_0001_1_0001_0000100003_0000002_0_0001_af2pred_0001 (protein)
chain: SDEWEELEELLRRLLEEAERNNDPFVKRLAHVALDLLRRATEENDEELLRAVKLALRDIEASCSS
B23: il10ra_site1_sap_23_mot_HHH_b1_02492_000000051_0001_1_21_H_._HHH_b2_05780_af2_0001_0000100001_0000001_0_0001 (protein)
chain: SSSSDDREELEELLEEIQRLLEEGDPERALELLQEALRFAFQLGDEEILQLLWELAKRVASSSSS
B24: il10ra_site1_sap_16_mot_HHH_b2_00800_af2_000000047_0001_1_20_H_._HHH_b1_01243_0001_0000600058_0000001_0_0001 (protein)
chain: SSSSSSEEREEVEELLEEAEHVDDERELAQVLVEALRFAWEGQDEEALRLVWEVVKKLLSSSSSS
B25: il10ra_site1_normal_mot_HHH_b2_02116_af2_000000165_0001_41_55_H_._HHH_b1_00240_af2_0001_0000100001_0000001_0_af2pred_0001 (protein)
chain: SSSSDEELKKEAAELFYEAARLLKEGDEEQVKELIERIEELAKEGNDHLIEAIARLLKDALSSSS
B26: il10ra_site1_sap_24_mot_HHH_b2_02053_af2_000000006_0001_3_19_H_._HHH_b2_00552_0001_0000400015_0000001_0_0001 (protein)
chain: DVEQEILRLVYQLNDPELLRLLWEVFRLLAETGDPRLEELLKEVLELLENGDPEEAEEVLKEAVK
B27: il10ra_site1_sap_14_mot_HHH_b2_01447_af2_000000258_0001_1_20_H_._HHH_b1_06879_af2_0001_0000900063_0000002_0_0001 (protein)
chain: SSSSDEEERELYELIKEIARLLIRGNPEEAKKLIEELEELAKELGDEAAEEAVEILKQAVDSSSS
B28: il10ra_site1_normal_mot_802863e75c239dc72d0ffd0be86c571b_0001_1_000000009_0001_36_49_H_._HHH_b1_03230_0001_0000300033_0000002_0 (protein)
chain: SSSSDEEFELLRRAHEELKRLLEEGNPEEAERLFEEVERELEEAGNFVAVFALRHTFRLNSSSSS
B29: il10ra_site1_sap_9_mot_HHH_b1_06789_af2_000000041_0001_1_20_H_._HHH_b1_03310_0001_0000100002_0000002_0_0001 (protein)
chain: SSSSDQEVFEAVEKAIERAIQLRREGDPEEARRLLEEAIELAEENGSRLAVLQLRWLLERLSSSS
B30: il10ra_site1_sap_22_mot_HHH_b1_02492_000000051_0001_1_21_H_._HHH_b1_01194_0001_0000200029_0000001_0_0001 (protein)
chain: SSSSSSDLYELARQLLELAFRHRDWELLHEVWRAYREAAEHDDPRLLEELLEEAEEELSSSSSSS
B31: il10ra_site1_sap_7_mot_HHH_b2_01447_af2_000000258_0001_1_20_H_._HHH_b2_03513_af2_0001_0000100003_0000001_0_0001 (protein)
chain: SSSSDDEVLELSVEAFRLALRGDPEKAQEVLEEALELAEELGNERAAEMIENMLKILRRKSSSSS
B32: il10ra_site1_normal_mot_HHH_b2_08186_000000021_0001_43_56_H_._HHH_b1_03152_0001_0000100002_0000001_0 (protein)
chain: SSSSSEEEELEELLEELEQLLREGDRERFARVLQEALRLAFRASNEEILRRLWELLQELASSSSS
B33: il10ra_site1_normal_mot_HHH_b2_02337_000000026_0001_38_52_H_._HHH_b1_06658_0001_0000100021_0000001_0 (protein)
chain: SSSSSDREERIEELLREAERLAEEGNPEEATRLLAEAVRLIFELGDEELLEELWELVKRLSSSSS
B34: il10ra_site1_sap_13_mot_HHH_b1_07768_000000240_0001_18_35_H_._HHH_b2_06480_0001_0000100005_0000001_0_0001_af2pred_0001 (protein)
chain: SSSSDEEYERLREALEEVIELLEEGNPEEARKVVEELERLAEERNDFLVELMARILKRDIESSSS
B35: il10ra_site1_sap_20_mot_HHH_b1_03531_000000273_0001_41_54_H_._HHH_b2_04967_0001_0000300019_0000001_0_0001 (protein)
chain: SSSSSEVEELYRLIRELNELLHEGDEEKVEELAEEAKELAEKLNSRVLLVLIEWLLRRFNSSSSS
B36: il10ra_site1_normal_mot_HHH_b2_08186_000000021_0001_43_56_H_._HHH_b2_06358_af2_0001_0000600010_0000001_0 (protein)
chain: SSSSSSDEVEEEVEELLREAEKVDREELLRLLLEALRLVFEAGNKELLQEIWEVLRRLSSSSSSS
B37: il10ra_site1_sap_20_mot_HHH_b1_06789_af2_000000041_0001_1_20_H_._HHH_b2_06658_af2_0002_0000100002_0000001_0_0001 (protein)
chain: SSSSSEDEEYVELALRFAQWLAEEGDPEAARHFLEAAEDIARNGNNPELEELVEEVKEELSSSSS

Each binder was assayed against il10ra, Q13651 (assay: yeast display titration).

Apparent Kd, inactive:
B1 no binding seen
B2 no binding seen
B3 no binding seen
B4 no binding seen
B5 no binding seen
B6 no binding seen
B7 no binding seen
B8 no binding seen
B9 no binding seen
B10 no binding seen
B11 no binding seen
B12 no binding seen
B13 no binding seen
B14 no binding seen
B15 no binding seen
B16 no binding seen
B17 no binding seen
B18 no binding seen
B19 > 1.39 µM
B20 no binding seen
B21 no binding seen
B22 no binding seen
B23 no binding seen
B24 no binding seen
B25 no binding seen
B26 no binding seen
B27 no binding seen
B28 no binding seen
B29 no binding seen
B30 no binding seen
B31 no binding seen
B32 no binding seen
B33 no binding seen
B34 no binding seen
B35 > 1.32 µM
B36 no binding seen
B37 no binding seen

Looked up one by one from the entries so far, 3 records:
Apparent Kd, inactive:
B11 no binding seen
B37 no binding seen
B6 no binding seen
